# Measured values: PubChem BioAssay AID602313 (National Center for Advancing Translational Sciences (NCATS), 2012)
# Out of some 390,000 compounds screened, about 760 (0.19%) were called active. Inconclusive means that the source gave no clear call. Such entries were picked first, then a sample of the others. The call rests on the fitted dose curve; in most records, active means well fitted inhibition curve with a large enough effect; inconclusive means small, poorly fitted or top-dose-only effect; inactive means flat fitted curve, though single readings scatter. Potencies beside an inconclusive call are fits to weak or partial responses and may not hold up.
# Assay: qHTS for Inhibitors of Vif-A3F Interactions: qHTS; further: nearly all actives have a fitted effect of over 65% in size
# Settings: HeLa A3F-eYFP + Vif (tagged APOBEC3F with the HIV-1 protein that degrades it), YFP fluorescence increase; series mostly up to 46.1 µM
# Procedure, shortened: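 HeLa cells stably expressing Vif plus C-terminally eYFP-tagged A3F were seeded, incubated overnight at 37 deg C, dosed with compound, incubated overnight again at 37 deg C. Yellow fluorescence (Ex 488/Em 500-530) reported blocked Vif-mediated A3F-eYFP degradation.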
# Potency means the concentration at half of the fitted maximal effect.
row,SMILES,Potency
1,CCc1cccc(C)c1NC(=O)c1cccc(N(C)C)c1,inactive
2,Cc1ccc(C)c(NC(=O)c2cc(-c3cc(C)ccc3O)n[nH]2)c1,"inconclusive: 35.5 µM [inhibitor, single point]"
3,Cc1ccc(-n2nnnc2SCC#N)cc1,"inconclusive: 7.94 µM [inhibitor, partial curve, poor fit]"
4,CCCC(=Nc1ccccc1)C1=C(O)C(C(=O)OC)C(C)(C)CC1=O (stereo not drawn),inactive
5,Cc1cc(C)n(S(=O)(=O)c2cc(Cl)ccc2Cl)n1,inactive
6,Cc1csc(NC(=O)CSc2nsc(SCC(=O)Nc3nc(C)cs3)c2C#N)n1,"inconclusive: 15.8 µM [inhibitor, single point]"
7,CCCCCCN1C[C@H](O)[C@@H](n2cc(-c3ccc(F)cc3)nn2)C[C@@H]1c1ccc(Cl)cc1,"inconclusive: 28.2 µM [inhibitor, single point]"
8,COc1cc2nc(SCC(=O)NCc3ccco3)n(Cc3ccc(Cl)cc3)c(=O)c2cc1OC,"inconclusive: 3.55 µM [inhibitor, full curve]"
9,CCS(=O)(=O)N1N=C(c2ccc(C)cc2)CC1c1cc2ccc(OC)cc2nc1Cl (stereo not drawn),"inconclusive: 20 µM [inhibitor, partial curve, poor fit]"
10,O=c1c(-c2ccco2)[n+]([O-])c2ccccc2n1OCc1ccccc1,inactive
11,CCOC(=O)C1(CCc2ccccc2)CCN(Cc2nccn2CC)CC1,"inconclusive: 35.5 µM [inhibitor, single point]"
12,CCOc1ccc(-c2cc(NC(=O)Cn3ncc4c3-c3ccccc3OC4)on2)cc1OCC,"inconclusive: 35.5 µM [inhibitor, single point]"
13,O=[N+]([O-])c1cc(Cl)ccc1NCCNS(=O)(=O)c1ccccc1,inactive
14,O=C(CSC(=S)N1CCOCC1)c1cc2ccccc2oc1=O,"inconclusive: 35.5 µM [inhibitor, single point]"
15,Oc1c(I)cc(Cl)c2cccnc12,"inconclusive: 22.4 µM [inhibitor, single point]"
16,O=C(c1ccc(-c2ccccc2)c(F)c1)C1CCCN(CCCn2cccn2)C1 (stereo not drawn),inactive
17,O=C(CCN1C(=O)c2ccccc2S1(=O)=O)Nc1ccccc1F,inactive
18,Cc1cc(-c2ccn[nH]2)c(C)s1,"inconclusive: 5.62 µM [inhibitor, single point]"
19,CCc1ccc(-n2c(SCC(=O)c3ccc4c(c3)NC(=O)CO4)nc3ccccc3c2=O)cc1,"inconclusive: 3.55 µM [inhibitor, partial curve, poor fit]"
20,CCCN1C(=O)/C(=C/c2ccc(N3CCCC3)c(C)c2)NC1=S,"inconclusive: 14.1 µM [inhibitor, partial curve, poor fit]"
21,CCOc1ccc(Nc2nc3ccccc3n3nnnc23)cc1,"inconclusive: 15.8 µM [inhibitor, partial curve, poor fit]"
22,CCOc1cc(/C=C(\C#N)c2nc(-c3cccs3)c(NC(C)=O)s2)ccc1O,"inconclusive: 4.47 µM [inhibitor, full curve, poor fit]"
23,CSc1nccc(-c2nn(-c3ccc(C)cc3)ccc2=O)n1,inactive

# 5 of the compounds above, tab-delimited.
row	SMILES	Potency
9	CCS(=O)(=O)N1N=C(c2ccc(C)cc2)CC1c1cc2ccc(OC)cc2nc1Cl (stereo not drawn)	inconclusive: 20 µM [inhibitor, partial curve, poor fit]
13	O=[N+]([O-])c1cc(Cl)ccc1NCCNS(=O)(=O)c1ccccc1	inactive
16	O=C(c1ccc(-c2ccccc2)c(F)c1)C1CCCN(CCCn2cccn2)C1 (stereo not drawn)	inactive
21	CCOc1ccc(Nc2nc3ccccc3n3nnnc23)cc1	inconclusive: 15.8 µM [inhibitor, partial curve, poor fit]
23	CSc1nccc(-c2nn(-c3ccc(C)cc3)ccc2=O)n1	inactive

# Going on with the list.

row,SMILES,Potency
1,CC(C)c1ccc(-c2csc3ncnc(N4CCN(C)CC4)c23)cc1,inactive
2,O=C(O)COc1ccc(/C=C/c2nc3ccc([N+](=O)[O-])cc3s2)cc1,inactive
3,COc1ccccc1C(=O)Oc1ccc2c(c1)O/C(=C\c1ccncc1)C2=O,"inconclusive: 35.5 µM [inhibitor, single point]"
4,Cc1ccc(C(=O)CNc2ccccc2)cc1,"inconclusive: 35.5 µM [inhibitor, single point]"
5,CCCn1c(=S)[nH]c2ccccc2c1=O,"inconclusive: 15.8 µM [inhibitor, partial curve, poor fit]"
6,O=C(Nc1ccccc1N1CCCCC1)c1ccc(Cl)c([N+](=O)[O-])c1,"inconclusive: 7.08 µM [inhibitor, partial curve, poor fit]"
7,O=C(COc1cccnc1[N+](=O)[O-])NCCc1ccc(Cl)cc1,"inconclusive: 7.08 µM [inhibitor, partial curve, poor fit]"
8,COc1ccc(NC(=O)c2cc3ccccc3o2)cc1OC,inactive
9,O=C(O)c1ccccc1C(=O)NNc1ccc(Cl)cc1Cl,"inconclusive: 3.16 µM [inhibitor, single point]"
10,Cc1cccc(OCCCN2C(=O)C(=O)c3cc(C)ccc32)c1,"inconclusive: 35.5 µM [inhibitor, single point]"
11,CC(=O)c1ccc(OCCCC(=O)N2CCN(S(=O)(=O)c3ccc(C)cc3C)CC2)cc1,"inconclusive: 6.31 µM [inhibitor, single point]"
12,O=C(Cc1csc(NC(=O)Nc2ccc(Cl)cc2)n1)NCc1ccccn1,"inconclusive: 7.08 µM [inhibitor, partial curve, poor fit]"
13,COc1ccc(C(=O)COC(=O)c2cc(S(=O)(=O)N3CCCCC3)ccc2N2CCOCC2)c(OC)c1,inactive
14,COc1ccc(NC(=O)CSc2c3c(nc4ccccc24)CCCC3)c(OC)c1,"inconclusive: 0.891 µM [inhibitor, full curve, poor fit]"
15,O=C(NC1CCN(C(=O)NCc2ccccc2)CC1)c1ccccc1,inactive
16,CCCOc1cccc(-c2cc(C(=O)NNC(=S)NCC)c3ccccc3n2)c1,inactive
17,CSc1nnc(-c2sc3cc(C(F)(F)F)cnc3c2-c2ccccc2)n1C,"inconclusive: 35.5 µM [inhibitor, partial curve, poor fit]"
18,CCOC(=O)c1sc(N)nc1C(F)(F)F,"inconclusive: 15.8 µM [inhibitor, single point]"
19,CCOC(=O)C(Cc1ccc(NC(=O)/C(=C\c2ccccc2)NC(=O)c2ccccc2)cc1)N1C(=O)c2ccccc2C1=O (stereo not drawn),"inconclusive: 5.62 µM [inhibitor, single point]"
20,Cc1ccc(Cl)cc1NC(=O)CN(C)S(=O)(=O)c1ccc2c(c1)n(C)c(=O)c(=O)n2C,inactive
21,CCC(C)Sc1ccc(-c2nc3cnccn3c2NC2CCCCC2)cc1 (stereo not drawn),"inconclusive: 22.4 µM [inhibitor, single point]"
22,CCOc1cccc2cc(-c3nnc(Nc4ccc(F)c(Cl)c4)s3)c(=O)oc12,"inconclusive: 22.4 µM [inhibitor, single point]"
23,Cc1ccc2c(=O)c(C(=O)c3ccccc3)cn(CC(=O)Nc3ccccc3)c2n1,"inconclusive: 35.5 µM [inhibitor, single point]"

row,SMILES,Potency
1,COc1cc(C)c(S(=O)(=O)N2CCN=C2c2ccccc2)cc1C,inactive
2,Cc1c(=O)n(OCc2ccc(Cl)cc2)c2ccccc2[n+]1[O-],"inconclusive: 31.6 µM [inhibitor, single point]"
3,COc1ccccc1NC(=O)/C(C#N)=C/C=C/c1ccco1,"inconclusive: 11.2 µM [inhibitor, partial curve]"
4,CCOC(=O)N1CCN(S(=O)(=O)c2ccc(F)c(C(=O)Nc3ccc(C)c(Cl)c3)c2)CC1,inactive
5,CCOc1ccc(N(C(=O)CNC(=O)c2ccco2)C(C(=O)NCC2CCCO2)c2ccccc2)cc1 (stereo not drawn),"inconclusive: 35.5 µM [inhibitor, single point]"
6,O=C1c2sc3nc4n(c(=O)c3c2CCC1Br)CCCCC4 (stereo not drawn),inactive
7,CCN1C(=S)SC(=O)C1=C1C=C(C)N(Cc2ccco2)C(C)=C1,"inconclusive: 28.2 µM [inhibitor, single point]"
8,O=C(NCc1cccnc1)c1cc(S(=O)(=O)N2CCCC2)c(Cl)cc1Cl,"inconclusive: 1.26 µM [inhibitor, full curve, poor fit]"
9,COc1ccc(-n2c(=O)c3ccc(C(=O)NCc4ccc(C)cc4)cc3n(CC(=O)Nc3ccc(C)cc3)c2=O)cc1,"inconclusive: 25.1 µM [inhibitor, single point]"
10,O=C(CSc1nc2ccccc2c(=O)[nH]1)Nc1ccc(N2CCOCC2)cc1,"inconclusive: 35.5 µM [inhibitor, single point]"
11,COc1cccc(C2=CC(c3ccc(N(C)C)cc3)n3nnnc3N2)c1 (stereo not drawn),active: 31.6 µM
12,CCOC(=O)C1=C(C)N=c2s/c(=C\c3ccc(OCC(=O)O)cc3)c(=O)n2C1c1ccc(Cl)cc1 (stereo not drawn),"inconclusive: 35.5 µM [inhibitor, single point]"
13,Cc1nc2cc(NS(=O)(=O)c3ccccc3)ccc2n1C,"inconclusive: 10 µM [inhibitor, partial curve, poor fit]"
14,Cc1noc2ncnc(NCc3cccc(Cl)c3)c12,inactive
15,Fc1ccc(/C=N/Nc2nc(-c3cccnc3)nc3ccccc23)cc1,"inconclusive: 35.5 µM [inhibitor, single point]"
16,CN=c1scc(-c2ccccc2F)n1/N=C/c1ccc[nH]1,"inconclusive: 35.5 µM [inhibitor, single point]"
17,Cc1ccc(/C=N/Nc2nc3ccccc3s2)o1,"inconclusive: 17.8 µM [inhibitor, single point]"
18,CN(CCC#N)c1ccc(C=C(C#N)c2ccc(Br)cc2)cc1,"inconclusive: 15.8 µM [inhibitor, single point]"
19,Cc1cc(C)cc(N2CCn3c2nc2c3c(=O)n(CCc3ccccc3)c(=O)n2C)c1,inactive
20,Cc1cc2[nH]c3c4ccccc4nc(C)c3c2cc1C,"inconclusive: 3.98 µM [inhibitor, single point]"
21,CCNC(=S)N/N=C/c1c(Cl)cccc1Cl,"inconclusive: 15.8 µM [inhibitor, partial curve, poor fit]"
22,COc1ccc(C2CC(c3cccc([N+](=O)[O-])c3)=NN2/C(C)=C/C(C)=O)cc1 (stereo not drawn),"inconclusive: 28.2 µM [inhibitor, single point]"
